Test results taken from the supplement of paper PMC8426693.
The other results are listed elsewhere or left out.

Assays:
Assay in all cases: NMR binding call after quantification (hit when 2 of 3 NMR criteria are met) (binary (1 = binding, 0 = not binding)); higher = binding
Conditions in all cases: RNA concentration 10 µM; fragment concentration 200 µM; 293 K
SARS-CoV-2 3'-UTR RNA = tested on: SARS-CoV-2 3'-UTR RNA
SARS-CoV-2 3_SL1 RNA = tested on: SARS-CoV-2 3_SL1 RNA
SARS-CoV-2 3_SL1+2 RNA = tested on: SARS-CoV-2 3_SL1+2 RNA
SARS-CoV-2 3_SL2 RNA = tested on: SARS-CoV-2 3_SL2 RNA
SARS-CoV-2 3_SL3base RNA = tested on: SARS-CoV-2 3_SL3base RNA
SARS-CoV-2 3_s2m RNA = tested on: SARS-CoV-2 3_s2m RNA

Row | Compound | NMR binding call (SARS-CoV-2 3'-UTR RNA) | NMR binding call (SARS-CoV-2 3_SL1 RNA) | NMR binding call (SARS-CoV-2 3_SL1+2 RNA) | NMR binding call (SARS-CoV-2 3_SL2 RNA) | NMR binding call (SARS-CoV-2 3_SL3base RNA) | NMR binding call (SARS-CoV-2 3_s2m RNA)
1 | CC(=O)c1ccc(OCC(=O)O)cc1 | 0 | 0 | 0 | 0 | 0 | 0
2 | Cn1nnc(NC(=O)c2ccc(F)cc2)n1 | 0 | 0 | 0 | 0 | 0 | 0
3 | CC(=O)NC1CCC(N)CC1 (centres undefined) | 0 | 0 | 0 | 0 | 0 | 0
4 | CC(C)C(=O)Nc1nnn(C)n1 | 0 | 0 | 0 | 0 | 0 | 0
5 | CC(=O)Nc1cc(C)n[nH]1 | 0 | 0 | 0 | 0 | 0 | 0
6 | CC1(C)CCCN1CCN | 0 | 0 | 0 | 0 | 0 | 0
7 | CC(NC1CC1)c1cccnc1 (centres undefined) | 0 | 0 | 0 | 0 | 0 | 0
8 | CC(=O)Nc1ncc(Cc2cccc(C)c2)s1 | 0 | 0 | 0 | 0 | 0 | 0
9 | OC1CCN(Cc2ccsc2)CC1 | 0 | 0 | 0 | 0 | 0 | 0
10 | CC(=O)Nc1cccc2nonc12 | 0 | 0 | 0 | 0 | 0 | 0
11 | Cc1ccc(S(=O)(=O)N(C)CCC#N)cc1 | 0 | 0 | 0 | 0 | 0 | 0
12 | N#CCC(=O)NC1CCCCC1 | 0 | 0 | 0 | 0 | 0 | 0
13 | CCc1nnc(NC(=O)C(F)(F)F)s1 | 0 | 0 | 0 | 0 | 0 | 0
14 | CC(Oc1ccc(Cl)cc1)C(N)=O (centres undefined) | 0 | 0 | 0 | 0 | 0 | 0
15 | Fc1ccc(NC2CCOCC2)nc1 | 0 | 0 | 0 | 0 | 0 | 0
16 | CS(=O)(=O)CC(O)c1ccccc1 (centres undefined) | 0 | 0 | 0 | 0 | 0 | 0
17 | CC(=O)Nc1cccc(NC(N)=O)c1 | 0 | 0 | 0 | 0 | 0 | 0
18 | O=C(c1csnn1)N1CCOCC1 | 0 | 0 | 0 | 0 | 0 | 0
19 | CCc1csc(-c2c[nH]cn2)n1 | 0 | 0 | 0 | 0 | 0 | 0
20 | Cc1ccc(CN(C)Cc2ccccc2)o1 | 0 | 0 | 0 | 0 | 0 | 0

Row | Compound | NMR binding call (SARS-CoV-2 3'-UTR RNA) | NMR binding call (SARS-CoV-2 3_SL1 RNA) | NMR binding call (SARS-CoV-2 3_SL1+2 RNA) | NMR binding call (SARS-CoV-2 3_SL2 RNA) | NMR binding call (SARS-CoV-2 3_SL3base RNA) | NMR binding call (SARS-CoV-2 3_s2m RNA)
21 | CC(=O)Nc1ccc(NC(=O)CC(C)C)cc1 | 0 | 0 | 0 | 0 | 0 | 0
22 | O=c1[nH]cc(N2CCCCC2)c(=O)[nH]1 | 0 | 0 | 0 | 0 | 0 | 0
23 | COC(=O)N1CCN(c2ccc(F)cc2)CC1 | 0 | 0 | 0 | 0 | 0 | 0
24 | CC1CN(S(C)(=O)=O)CCC1N (centres undefined) | 0 | 0 | 0 | 0 | 0 | 0
25 | NC(=O)c1cnn(CCO)c1 | 0 | 0 | 0 | 0 | 0 | 0
26 | CC(=O)N(C)c1ccccc1C(=O)O | 0 | 0 | 0 | 0 | 0 | 0
27 | CN(C)C(=O)N1CCOCC12CCOC2 (centres undefined) | 0 | 0 | 0 | 0 | 0 | 0
28 | O=C(O)c1cccc(NC(=O)c2ccno2)c1 | 0 | 0 | 0 | 0 | 0 | 0
29 | Cc1cc(C(=O)NC(C)C)nn1C | 0 | 0 | 0 | 0 | 0 | 0
30 | NC(=O)C(O)C1CCOCC1 (centres undefined) | 0 | 0 | 0 | 0 | 0 | 0
31 | CCc1ncc(CNC)s1 | 0 | 0 | 0 | 0 | 0 | 0
32 | NC(=O)c1ccc(NC(=O)C2CCCO2)cc1 (centres undefined) | 0 | 0 | 0 | 0 | 0 | 0
33 | Cn1cc(Oc2ncncc2Cl)cn1 | 0 | 0 | 0 | 0 | 0 | 0
34 | NC(=O)c1ccc(NC(=O)c2cnccn2)cc1 | 0 | 0 | 0 | 0 | 0 | 0
35 | O=C(NCCC1=CCCCC1)c1cnccn1 | 0 | 0 | 0 | 0 | 0 | 0
36 | CC(Cc1ccc(Br)cc1)C(N)=O (centres undefined) | 0 | 0 | 0 | 0 | 0 | 0
37 | COc1cc(CN)cc(OC)c1OC.Cl | 0 | 0 | 0 | 0 | 0 | 0
38 | Fc1ccccc1NCc1cc[nH]n1 | 0 | 0 | 0 | 0 | 0 | 0
39 | Cn1cc(Cl)c(C(=O)NC2CCCC2)n1 | 0 | 0 | 0 | 0 | 0 | 0
40 | Oc1ncc(NCc2ccccc2)c(O)n1 | 0 | 0 | 0 | 0 | 0 | 0

3 of the compounds above, with tabs.
Row	Compound	NMR binding call (SARS-CoV-2 3'-UTR RNA)	NMR binding call (SARS-CoV-2 3_SL1 RNA)	NMR binding call (SARS-CoV-2 3_SL1+2 RNA)	NMR binding call (SARS-CoV-2 3_SL2 RNA)	NMR binding call (SARS-CoV-2 3_SL3base RNA)	NMR binding call (SARS-CoV-2 3_s2m RNA)
29	Cc1cc(C(=O)NC(C)C)nn1C	0	0	0	0	0	0
30	NC(=O)C(O)C1CCOCC1 (centres undefined)	0	0	0	0	0	0
31	CCc1ncc(CNC)s1	0	0	0	0	0	0

Remaining list, next part

Row | Compound | NMR binding call (SARS-CoV-2 3'-UTR RNA) | NMR binding call (SARS-CoV-2 3_SL1 RNA) | NMR binding call (SARS-CoV-2 3_SL1+2 RNA) | NMR binding call (SARS-CoV-2 3_SL2 RNA) | NMR binding call (SARS-CoV-2 3_SL3base RNA) | NMR binding call (SARS-CoV-2 3_s2m RNA)
41 | O=C(NCc1ccccc1)c1cccc(F)c1 | 0 | 0 | 0 | 0 | 0 | 0
42 | CC(=O)Nc1ccc(OC(=O)N2CCCC2)cc1 | 0 | 0 | 0 | 0 | 0 | 0
43 | O=S1(=O)CCCN1Cc1cccc(F)c1 | 0 | 0 | 0 | 0 | 0 | 0
44 | CC(CS(N)(=O)=O)c1ccccc1 (centres undefined) | 0 | 0 | 0 | 0 | 0 | 0
45 | Cn1nc(C(N)=O)c2ccccc21 | 0 | 0 | 0 | 0 | 0 | 0
46 | O=C(COc1ccccc1)Nc1cccc(F)c1 | 0 | 0 | 0 | 0 | 0 | 0
47 | CC(C)(C)NC(=O)N1CCC(C(N)=O)CC1 | 0 | 0 | 0 | 0 | 0 | 0
48 | COc1ccc(CNC(=O)c2cnccn2)cc1 | 0 | 0 | 0 | 0 | 0 | 0
49 | Cn1nnc(NC(=O)c2ccc(Cl)cc2)n1 | 0 | 0 | 0 | 0 | 0 | 0
50 | CC1CCC(NC2CCC(O)CC2)CC1 (centres undefined) | 0 | 0 | 0 | 0 | 0 | 0
51 | CCOC(=O)NCc1ccccc1 | 0 | 0 | 0 | 0 | 0 | 0
52 | N#CCC(=O)N1CCC(Cc2ccccc2)CC1 | 0 | 0 | 0 | 0 | 0 | 0
53 | CC(=O)N1CCCNCC1 | 0 | 0 | 0 | 0 | 0 | 0
54 | Cc1cc(CN(C)C(=O)NC2CC2)no1 | 0 | 0 | 0 | 0 | 0 | 0
55 | Cc1cc(C)nc(NC(=O)Nc2ccccc2)c1 | 0 | 0 | 0 | 0 | 0 | 0
56 | CC(=O)N1CCC(c2c[nH]c3ccccc23)CC1 | 0 | 0 | 0 | 0 | 0 | 0
57 | CNC(=O)CNc1ncnc2sccc12 | 0 | 0 | 0 | 0 | 0 | 0
58 | NC(=O)C1CCN(C(=O)C2CCCCC2)CC1 | 0 | 0 | 0 | 0 | 0 | 0
59 | COC(=O)Nc1nc2c(C)cccc2s1 | 0 | 1 | 0 | 0 |  | 0
60 | CC(CO)N(C)c1ncccc1F (centres undefined) | 0 | 0 | 0 | 0 | 0 | 0
